The whole screen tested about 360,000 compounds, of which about 7,500 (2.1%) were called active. This list was built around the results that the source calls inconclusive (neither active nor inactive); the mix of calls is not that of the screen. Calls follow the shape of the dose curve; as a rule, active = well fitted inhibition curve with a large enough effect; inconclusive = small, poorly fitted or top-dose-only effect, or effect the other way; inactive = flat fitted curve, though single readings scatter. Potencies beside an inconclusive call are fits to weak or partial responses and may not hold up.
Test: Nrf2 qHTS screen for inhibitors; also: nearly all actives have a fitted effect of over 60% in size
Conditions: A549 ARE-Fluc reporter, luciferase luminescence, 18-24 h; series mostly up to 46 µM
Procedure, shortened: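 Concentration-response testing used A549 ARE_Fluc cells at 5000 cells/well. Following an 18-24 h compound incubation, viability was read by fluorescence (Ex 405/Em 525) and luciferase output by luminescence.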
Potency is read from the fitted curve at half-maximal effect.

Question: With `Cc1ccc(CNC(=O)c2ccccc2N(C)S(C)(=O)=O)cc1` as the molecule, how does the Potency read?
Answer: inactive

Question: Which Potency does the source give for `CCc1ccc(-c2cn3c(n2)sc2cc(C(=O)NC4CCCCC4)ccc23)cc1` here?
Answer: inconclusive: 29.1 µM [activator, single point]

Question: For `COc1cccc(-c2nc(S(=O)(=O)c3ccc(Cl)cc3)c(NCc3ccccc3)o2)c1`, which Potency is on record?
Answer: inconclusive: 0.0046 µM [falling, full curve, poor fit]

Question: Which Potency does the source give for `COc1cccc(C(=O)Nc2cccc(OCc3cc(=O)n4c5c(sc4n3)CCCC5)c2)c1` here?
Answer: inactive

Question: Which Potency does the source give for `c1ccc2sc(C3CCN(Cc4nnnn4Cc4ccc5c(c4)OCO5)CC3)nc2c1` here?
Answer: inconclusive: 29.1 µM [falling, single point]

Question: With `Cn1nc(C(F)(F)F)c(/C=N/OC(=O)c2ccccc2)c1Cl` as the molecule, how does the Potency read?
Answer: inactive

Question: For `Cc1cccc(C(=O)O/N=C(\N)c2ccc(Cl)cc2)c1`, which Potency is on record?
Answer: inconclusive: 2.06 µM [activator, partial curve]

Question: With `Cc1cccc(-n2cc(-c3ccccc3)c3c(N4CCOCC4)ncnc32)c1` as the molecule, how does the Potency read?
Answer: inconclusive: 23.1 µM [falling, single point]

Question: For `COc1ccccc1/C=C/C=N/NC(=O)c1cccs1`, which Potency is on record?
Answer: inconclusive: 16.4 µM [activator, partial curve, poor fit]

Question: Which Potency does the source give for `COc1ccc(CN(C)CC(=O)Nc2cc(OC)c([N+](=O)[O-])cc2C)c(OC)c1` here?
Answer: inconclusive: 20.6 µM [falling, single point]

Question: Which Potency does the source give for `O=C(COc1ccc(Cl)cc1)Nc1cccc(S(=O)(=O)NC2=NCCCCC2)c1` here?
Answer: active: 25.9 µM

Question: Which Potency does the source give for `Cc1cc(NC(=O)c2cc(F)c(F)cc2Cl)no1` here?
Answer: inconclusive: 18.4 µM [activator, single point]

Question: For `CC(=O)c1sc(Nc2ccccn2)nc1C`, which Potency is on record?
Answer: inconclusive: 20.6 µM [activator, partial curve, poor fit]

Question: Which Potency does the source give for `NC(=S)Nc1ccc(Cl)c(Cl)c1` here?
Answer: inconclusive: 18.4 µM [falling, partial curve]

Question: Which Potency does the source give for `O=C(NCc1ccccc1Br)c1cnc2sc(N3CCCCCC3)nn2c1=O` here?
Answer: inactive

Question: Which Potency does the source give for `O=C(CSc1ccc(-c2ccco2)nn1)Nc1ccc(F)cc1F` here?
Answer: inconclusive: 32.6 µM [falling, partial curve, poor fit]

Question: With `CCOc1ccccc1C(=O)OCC(=O)Nc1cccc(S(=O)(=O)N2CCCC2)c1` as the molecule, how does the Potency read?
Answer: inactive

Question: With `O=C(COC(=O)/C=C/c1ccccc1[N+](=O)[O-])NCc1ccco1` as the molecule, how does the Potency read?
Answer: inactive

Question: Which Potency does the source give for `Cc1ccc(NC(=O)O/N=C/c2ccc(N(C)C)cc2)cc1` here?
Answer: inconclusive: 8.2 µM [activator, partial curve, poor fit]

Question: For `O=C(Nc1ccc(F)c(Cl)c1)N1CC=C(c2c[nH]c3ccccc23)CC1`, which Potency is on record?
Answer: inconclusive: 0.651 µM [falling, full curve, poor fit]

Question: For `c1ccc(-n2nnnc2OCCOc2nnnn2-c2ccccc2)cc1`, which Potency is on record?
Answer: inconclusive: 29.1 µM [falling, single point]

Question: Which Potency does the source give for `CC(=O)NC1CC2CCCC(C1)N2S(=O)(=O)c1cccc(F)c1` (stereo unspecified) here?
Answer: inconclusive: 29.1 µM [activator, single point]

Question: With `CCC(=O)c1ccc(OCCn2cncn2)cc1` as the molecule, how does the Potency read?
Answer: inactive

Question: Which Potency does the source give for `O=C(Nc1ccc(NC(=O)c2sc3ccccc3c2Cl)cc1Cl)c1ccco1` here?
Answer: inconclusive: 25.9 µM [falling, single point]

Question: For `CN(C(=O)COc1ccc2ccc(=O)oc2c1)C1CCS(=O)(=O)C1` (stereo unspecified), which Potency is on record?
Answer: inactive

Question: For `COc1cccc(OC)c1C(=O)Nc1ccc2c(c1)Cc1ccccc1-2`, which Potency is on record?
Answer: inconclusive: 29.1 µM [activator, single point]

Question: With `COc1cccc(-c2nnc(NC(=O)c3cccs3)s2)c1` as the molecule, how does the Potency read?
Answer: inactive

Question: Which Potency does the source give for `CCOc1ccccc1NC(=O)c1ccccc1N(C)S(=O)(=O)c1ccc(C)cc1` here?
Answer: inactive

Question: With `CC(=O)NS(=O)(=O)c1ccc(NC(=O)c2cccc3ccccc23)cc1` as the molecule, how does the Potency read?
Answer: inactive

Question: Which Potency does the source give for `CCCN(CCC)C(=O)c1cc2c(=O)[nH]c3ccc(C)cc3c2s1` here?
Answer: active: 18.4 µM

Question: Which Potency does the source give for `CCC1CCCCN1S(=O)(=O)c1ccc(NC(=O)c2cccs2)cc1` (stereo unspecified) here?
Answer: inconclusive: 29.1 µM [falling, single point]

Question: Which Potency does the source give for `O=C(Nc1ccc2c(c1)N(Cc1ccccc1)C(=O)c1ccccc1S2)NC1CC1` here?
Answer: inconclusive: 29.1 µM [falling, single point]

Question: Which Potency does the source give for `CC(C)(C)c1ccc(OCC(=O)Nc2cccc(S(=O)(=O)NC3=NCCCCC3)c2)cc1` here?
Answer: inconclusive: 23.1 µM [falling, partial curve, poor fit]

Question: With `Cc1ccc(NS(=O)(=O)c2coc(C(N)=O)c2)cc1F` as the molecule, how does the Potency read?
Answer: inconclusive: 0.461 µM [falling, partial curve, poor fit]

Question: With `Cc1nn2c(C)c(C(=O)NCc3ccco3)cnc2c1-c1ccccc1` as the molecule, how does the Potency read?
Answer: inconclusive: 29.1 µM [activator, single point]

Question: Which Potency does the source give for `COc1cccc(C2=Nn3c(nnc3-c3ccccc3O)SC2)c1` here?
Answer: inactive

Question: With `Cc1csc(NC(=O)c2ccc(S(C)(=O)=O)cc2)n1` as the molecule, how does the Potency read?
Answer: inconclusive: 4.11 µM [activator, full curve]

Question: For `COc1ccc(/C=N/Nc2nn3cnnc3c3ccccc23)cc1`, which Potency is on record?
Answer: inactive

Question: For `COc1ccc(NC(=O)CSc2nc(SC)ns2)cc1`, which Potency is on record?
Answer: inconclusive: 16.4 µM [activator, partial curve]

Question: Which Potency does the source give for `COc1cc([C@@H]2OC[C@@H]3[C@H]2CO[C@@H]3c2ccc3c(c2)OCO3)ccc1O` here?
Answer: inactive

Question: Which Potency does the source give for `COc1ccc(SCC(=O)Nc2ccccc2Cl)cc1` here?
Answer: inconclusive: 25.9 µM [activator, single point]

Question: With `Cc1ccc(N2CCn3c2nc2c3c(=O)n(CCCc3ccccc3)c(=O)n2C)cc1C` as the molecule, how does the Potency read?
Answer: inactive

Question: Which Potency does the source give for `CCNc1cccc(S(=O)(=O)N2CCN(S(=O)(=O)c3ccc4c(c3)OCCO4)CC2)c1` here?
Answer: inconclusive: 16.4 µM [falling, single point]

Question: Which Potency does the source give for `Cc1cc(C)nc(N/N=C/c2ccc([N+](=O)[O-])o2)n1` here?
Answer: inconclusive: 18.4 µM [falling, single point]

Question: With `Cc1[nH][nH]c(=O)c1C(c1ccc(-c2ccc(C(=O)O)cc2)o1)c1c(C)[nH][nH]c1=O` as the molecule, how does the Potency read?
Answer: inactive

Question: Which Potency does the source give for `CCOCCCNCC(=O)NCC1CCCCC1` here?
Answer: inconclusive: 25.9 µM [activator, partial curve, poor fit]

Question: For `COC(=O)N/N=C/c1ccc([N+](=O)[O-])s1`, which Potency is on record?
Answer: active: 6.51 µM

Question: Which Potency does the source give for `CCn1c(NC(=O)/C=C/c2ccc(F)cc2)nc2ccccc21` here?
Answer: inconclusive: 32.6 µM [falling, single point]

Question: Which Potency does the source give for `c1cncc(-c2nc(-c3cccs3)cs2)c1` here?
Answer: inconclusive: 14.6 µM [activator, partial curve]

Question: With `COc1ccc(C(=O)Nc2ccc(NC(C)=O)cc2)cc1S(=O)(=O)N(C)Cc1ccccc1` as the molecule, how does the Potency read?
Answer: inconclusive: 2.06 µM [falling, partial curve, poor fit]

Question: For `CN(C)c1ccc(C(=S)N2CCCCC2)cc1Br`, which Potency is on record?
Answer: inconclusive: 20.6 µM [falling, partial curve, poor fit]

Question: With `CCN(CC)S(=O)(=O)c1ccc(N2CCOCC2)c(NC(=O)COc2ccc(Cl)cc2)c1` as the molecule, how does the Potency read?
Answer: inconclusive: 9.2 µM [falling, partial curve]

Question: For `Cc1cc(C)nc(SCC(=O)Nc2cccc(S(=O)(=O)N(C)C)c2)n1`, which Potency is on record?
Answer: active: 18.4 µM

Question: Which Potency does the source give for `COc1ccc(/C=C2\SC(=S)N(CCC(=O)N(CCO)Cc3ccccc3)C2=O)cc1OC` here?
Answer: inconclusive: 18.4 µM [falling, partial curve, poor fit]

Question: For `Cc1ccc2nc(-c3ccc(NS(=O)(=O)c4ccccc4)cc3)sc2c1`, which Potency is on record?
Answer: inconclusive: 7.31 µM [activator, partial curve]

Question: Which Potency does the source give for `COc1cc(/C=C2/CCC/C(=C\c3cc(O)c(OC)c(Cl)c3)C2=O)cc(Cl)c1O` here?
Answer: inconclusive: 25.9 µM [falling, single point]

Question: With `Cn1c(N2CCN(C(=O)Nc3ccc(C(F)(F)F)cc3)CC2)nc2ccccc21` as the molecule, how does the Potency read?
Answer: inconclusive: 20.6 µM [falling, single point]

Question: Which Potency does the source give for `CC12CCC(C(=O)N(CCCCN3CCN(Cc4ccccc4)CC3)C1=O)C2(C)C` (stereo unspecified) here?
Answer: inconclusive: 9.2 µM [activator, partial curve, poor fit]

Question: For `COC(=O)[C@@]1(Cc2ccc(F)cc2)[C@H]2c3cc(C(=O)N4CCCC4)n(Cc4ccc(C(F)(F)F)nc4)c3C[C@H]2CN1C(=O)c1ccccc1`, which Potency is on record?
Answer: inconclusive: 20.6 µM [falling, single point]

Question: With `C=CCn1c(SCCN2C(=O)c3ccccc3C2=O)nc2scc(-c3ccc(F)cc3)c2c1=O` as the molecule, how does the Potency read?
Answer: inconclusive: 29.1 µM [falling, single point]

Question: For `CN(C)CCCC1(O)c2ccccc2C=Cc2ccccc21`, which Potency is on record?
Answer: inactive

Question: With `COc1cc(OC)cc(C(=O)N2CCN(C(=O)COc3ccccc3)CC2)c1` as the molecule, how does the Potency read?
Answer: inactive

Question: With `O=C(CSc1nc2nc(-c3cccs3)cc(C(F)(F)F)c2c(=O)[nH]1)C(F)(F)F` as the molecule, how does the Potency read?
Answer: inconclusive: 7.31 µM [falling, partial curve, poor fit]

Question: Which Potency does the source give for `Cc1ccc(C(c2cccc(Br)c2)c2c(C)[nH]c3ccccc23)s1` (stereo unspecified) here?
Answer: inactive

Question: For `Cc1cc(/C=N/NC(=O)c2cccc(F)c2)c(C)n1-c1ccccc1`, which Potency is on record?
Answer: inconclusive: 2.06 µM [activator, partial curve]

Question: With `O=C(/C=C/c1cccs1)c1cc(Cl)ccc1O` as the molecule, how does the Potency read?
Answer: inactive

Question: With `Cc1cc2nc(C)c(Cc3ccccc3)c(=O)n2[nH]1` as the molecule, how does the Potency read?
Answer: inactive

Question: With `Cc1ccc(Cc2cnc(NC(=O)c3cccs3)s2)cc1` as the molecule, how does the Potency read?
Answer: inconclusive: 0.517 µM [activator, full curve, poor fit]

Question: For `O=C1c2ccccc2NC(c2ccc(Br)s2)N1O` (stereo unspecified), which Potency is on record?
Answer: active: 18.4 µM

Question: With `c1ccc(Nc2nc3ccccc3o2)cc1` as the molecule, how does the Potency read?
Answer: inconclusive: 3.26 µM [activator, full curve]

Question: With `COc1cc(OC)c(NC(=O)N2CC3CCCN3c3ccccc32)cc1Cl` (stereo unspecified) as the molecule, how does the Potency read?
Answer: inconclusive: 3.66 µM [activator, full curve, poor fit]

— PubChem BioAssay AID504444 (National Center for Advancing Translational Sciences (NCATS), 2011)
